Screening data, single-dose tests

The chains behind the UniProt entries cited, without tags or fusion partners.
UniProt P9WPC5, whole entry: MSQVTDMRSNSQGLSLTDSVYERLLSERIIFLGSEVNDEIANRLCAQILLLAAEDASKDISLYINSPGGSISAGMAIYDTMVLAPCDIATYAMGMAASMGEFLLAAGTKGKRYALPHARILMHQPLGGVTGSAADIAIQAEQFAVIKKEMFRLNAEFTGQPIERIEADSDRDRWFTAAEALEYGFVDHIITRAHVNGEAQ
UniProt P9WPC3, whole entry partner: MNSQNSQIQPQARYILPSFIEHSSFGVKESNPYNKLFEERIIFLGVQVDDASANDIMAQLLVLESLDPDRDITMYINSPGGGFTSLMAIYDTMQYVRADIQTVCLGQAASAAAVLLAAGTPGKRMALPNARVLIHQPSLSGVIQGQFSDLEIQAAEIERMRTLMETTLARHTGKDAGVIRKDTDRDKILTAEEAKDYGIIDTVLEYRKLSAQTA
UniProt P9WNZ1, whole entry: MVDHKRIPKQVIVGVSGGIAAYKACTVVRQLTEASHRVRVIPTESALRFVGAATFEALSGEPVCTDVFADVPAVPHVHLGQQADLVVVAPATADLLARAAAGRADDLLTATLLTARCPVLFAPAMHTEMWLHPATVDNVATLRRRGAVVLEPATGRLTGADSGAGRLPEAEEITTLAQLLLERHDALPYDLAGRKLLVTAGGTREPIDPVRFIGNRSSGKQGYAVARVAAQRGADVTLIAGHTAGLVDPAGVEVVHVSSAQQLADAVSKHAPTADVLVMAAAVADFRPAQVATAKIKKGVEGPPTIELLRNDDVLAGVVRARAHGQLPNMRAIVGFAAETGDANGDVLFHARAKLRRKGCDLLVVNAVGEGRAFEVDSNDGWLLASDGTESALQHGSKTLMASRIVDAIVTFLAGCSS

The filed quantity is “Percent Effect” (%). The record does not define 0% and 100%; most values in the screen are far below 50% and negative numbers occur (in some assays of this library far below -100). The compounds are a random part of those screened. A dash means the value is not listed here; it may have been measured.

ClpP1P2: 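Protease assay of ClpP1P2, read by the AMC dye that it sets free. Target: ClpP1P2, Mycobacterium tuberculosis (UniProt P9WPC5 and UniProt P9WPC3). Tested at 50 µM. Direction is inferred from only a few compounds that gave an IC50; most scored high, so higher reads as stronger inhibition. Most other retested compounds had strongly negative values. About 69,000 compounds were tested under these conditions; 0.015% (about 10) showed 50% or more at least once.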
CoaBC: 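Enzyme assay of CoaBC with a phosphate dye (Biomol Green) read at 650 nm. Target: Coenzyme A biosynthesis protein CoaBC, Mycobacterium tuberculosis (UniProt P9WNZ1). Concentration: 30 µM. Direction is inferred from only a few compounds that gave an IC50; most scored high, so higher reads as stronger inhibition. Most strong results did not repeat in a second test. Size under these conditions: about 67,000 compounds, about 40 of them at 50% or above in at least one test.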
Toxoplasma: 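Assay of Toxoplasma gondii numbers, read through their beta-galactosidase reporter with a colour substrate. Concentration: 10 µM. Higher reads as fewer parasites (inferred from which compounds were picked for retests). About 67,000 compounds were tested under these conditions; 0.38% (about 260) showed 50% or more at least once.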

SMILES,ClpP1P2,CoaBC,Toxoplasma
CN(c1ncccc1C#N)C1CCN(CCc2ccncc2)CC1,-3.474%,-,2.373%
CCCc1cc(=O)[nH]c2nnc(SCC(=O)OC)n12,9.651%,0.3745%,3.756%
O=C(C1CCN(c2ccnc3ccc(Br)cc23)CC1)N1CCOCC1,18.64%,11.11%,-1.876%
Cc1nn(C)c(N(C)C)c1CNC(C)c1cccnc1 (stereo unspecified),5.308%,-3.004%,-0.9855%
O=C(NCc1cc[nH]n1)NCC(c1ccccc1)N1CCOCC1 (stereo unspecified),-16.41%,4.859%,13.22%
Cn1ccnc1NC[C@@H]1CCC[C@@H]2CN(CC3CC3)C[C@@H]21,-2.661%,-,-
CC(C)Cc1nc(NC(=O)c2cc(-c3cccnc3)n[nH]2)n[nH]1,-16.1%,2.421%,2.719%
O=C(O)C(F)(F)F.[H][C@@]12CCN(S(=O)(=O)c3cccc(C)c3)C[C@]1([H])[C@@H](CN(C)C)OC2,-,-,-3.706%
Cc1nonc1OCCNC(=O)CCCc1ccc(Cl)cc1,-10.43%,13.2%,6.966%
Cc1cc(C)c2c(NCC3(O)CCCCC3)ncnc2n1,-12.76%,8.009%,-26.05%
O=C(NCCOCC(F)(F)F)c1ccc(-c2ccco2)[nH]c1=O,-9.723%,4.864%,3.963%
CC(=O)N1CCN(C(=O)NCc2ccccc2Cn2cncn2)CC1,-2.15%,6.429%,12.4%
Cc1ccc(C(=O)N2CCC3(CCCN(c4ncc(F)cn4)C3)C2)cn1 (stereo unspecified),-19.09%,3.21%,-
Cc1cnc(CN2CCCC2c2noc(C)n2)cn1 (stereo unspecified),7.583%,2.216%,28.78%
Cc1nnc(CN(C)C2CCN(c3cccc(-c4cscn4)c3)CC2)o1,-10.98%,12.55%,-41.21%
Cc1ccc2nc(NCCCN3CCCCCC3=O)n(C)c(=O)c2c1,2.309%,4.104%,0.7052%
Cc1ccc([C@@H]2CN(C(=O)c3ccoc3C)C[C@H]2NC(=O)C2CC2)cc1,10.86%,-6.746%,1.424%
COC(=O)CN1CCSC(c2ccccc2)C1 (stereo unspecified),-15.75%,0.8861%,-10.05%
O=C(O)C(F)(F)F.O=C(O)C(F)(F)F.[H][C@@]12CCC(=O)N(Cc3cccc(C)n3)[C@]1([H])CCN2Cc1ccc(C)s1,-,-,-6.267%
O=C(NCCCN1CCc2ccccc2C1)c1cccnc1O,4.465%,2.216%,6.232%
CCN(C)S(=O)(=O)N1CCC(C(O)c2ccc(F)cc2)CC1 (stereo unspecified),-2.788%,0.1229%,0.1669%
CC(C)CC(C#N)NC(=O)CCNC(=O)C(C)(C)C (stereo unspecified),-1.652%,3.614%,-0.23%
CCCc1nc(N(C)CCN2CCCCCC2)c2cnn(C)c2n1,-6.82%,-2.832%,-8.169%
CC(C)(C)CN[C@@H]1CO[C@H](CNC(=O)c2ccncc2)[C@H]1O,-17.91%,4.912%,-1.76%
COc1ccc(C2=CCN(C(=O)C3CCCN(C(C)=O)C3)CC2)cc1 (stereo unspecified),-39.22%,3.448%,6.102%
CC(=O)c1cn(CCC(=O)NCCCC(=O)O)c2ccccc12,-7.349%,3.269%,1.887%
CN(C)c1cncc(C2CCN(CCO)CC2)n1,9.124%,-13.06%,7.623%
CCC(CC)CN1CCN(CC(=O)Nc2ccc3nsnc3c2)CC1,-15.47%,-12.5%,10.34%
COCc1ccccc1CNc1nnc(C)c(C)c1C#N,11.55%,-2.361%,-1.831%
CC(C)c1nnc(NC(=O)Cc2ccc(F)cc2)[nH]1,0.6313%,-1.951%,29.24%
CCOC(=O)CN(CC(F)(F)F)C(=O)c1nc(C)n2ccccc12,-372.5%,0.4914%,4.255%
COCc1nc2cc(NCc3cc[nH]n3)ccc2o1,1.183%,10.32%,2.412%
COCCC(=O)N1CCC(c2noc3nc(C)cc(C(F)(F)F)c23)CC1,0.1068%,1.389%,-3.652%
Nc1cc2c(nn1)CCN(C(=O)c1cccnc1Oc1ccccc1)C2,-6.124%,0.5894%,-9.893%
CCOc1ccc2[nH]c(=O)c(CN3CCC(N4CCCC4)CC3)cc2c1,-24.01%,3.299%,17.93%
O=C(NCC(Cc1cccc(F)c1)N1CCCC1=O)c1cnccn1 (stereo unspecified),-13.77%,-5.33%,0%
COc1ccc(OC2CCN(c3ccncc3)CC2)cc1,-0.5386%,17.67%,21.53%
O=C(NCc1nc(NC2CCCC2)c2cc(Cl)ccc2n1)c1cscn1,-4.83%,11.73%,-2.017%
O=C(NCC(F)(F)F)c1ccc(-n2cccn2)nn1,1.469%,-1.392%,-9.717%
CCOC(=O)N1CCN(CC(=O)Nc2ccc(F)cc2Cl)CC1,-0.5713%,3.03%,18.96%
CSc1ccc(C(CN)N2CCc3sccc3C2)cc1 (stereo unspecified),-10.96%,5.803%,-1.458%
CCc1nc(CNC2CCCCNC2=O)cs1 (stereo unspecified),-2.838%,-,-6.05%
c1ccc(CCn2cc(-c3nc(CN4CCOCC4)no3)nn2)cc1,-3.806%,2.263%,-7.896%
CC[C@H]1CN(C(=O)c2cnc(CN3CCCC3)s2)CC[C@@]1(C)O,0.764%,3.44%,-2.432%
O=C(NCc1ccco1)Nc1cccc(S(=O)(=O)C(F)F)c1,0.9996%,-9.6%,-5.103%
CC(C)C1CN(S(=O)(=O)c2ccc(C#N)cc2)CCS1 (stereo unspecified),1.009%,5.186%,-9.971%
CC(=O)N1CCCN(C(=O)NCc2cc[nH]n2)CC1,3.086%,1.169%,-6.466%
O=C(O)C(F)(F)F.[H][C@]12CCC[C@@]1(COCC1CCOCC1)CN(C(=O)c1ccccn1)C2,-,-,-18.65%
CCCS(=O)(=O)CC(=O)NC(C)c1cccc(-n2cccn2)c1 (stereo unspecified),1.173%,1.463%,-2.21%
Cn1cc(CN2CC[C@]3(C[C@H](OCc4ccccn4)CO3)C2)cn1,-9.252%,4.511%,-5.177%
Cc1cc(C2CCCN(C(=O)c3c(C)noc3C)C2)n[nH]1 (stereo unspecified),-3.908%,-7.962%,0.2514%
Cc1cccc(S(=O)(=O)N2C[C@@H]3OCCN(C(C)C)[C@@H]3C2)c1,-4.183%,2.5%,-
Cc1cc(C)n(-c2cncc(NCCNC(=O)C3CCCC3)n2)n1,-59.2%,0.2545%,-17.81%
Cc1nnc(NC(=O)NCc2ccc(OC(C)C)nc2)s1,3.307%,-0.2389%,1.64%
Cc1cncc(C2CCCN2CCO)n1 (stereo unspecified),-13.95%,6.76%,3.23%
CCc1ccc(C2CC(=O)Nc3c2c(=O)n(C)c2ncnn32)cc1 (stereo unspecified),-22.97%,2.105%,2.985%
O=C(c1cc[nH]n1)N1CC[C@@H]2CN(Cc3cccnc3)S(=O)(=O)[C@@H]2CC1,12.87%,5.285%,-
Cc1cc(NC(=O)NCc2ccc(S(=O)(=O)N3CCCC3)s2)no1,-10.91%,3.797%,-1.299%
CN(Cc1nnc(C2CC2)o1)C1CCCN(c2cccnn2)C1 (stereo unspecified),-21.09%,11.82%,-32.93%
CC(NC(=O)N1CCCC1)c1ccc(S(N)(=O)=O)cc1 (stereo unspecified),-11.15%,5.157%,-14.83%
COc1ccccc1C(C#N)NC(=O)c1cccc2c1oc(=O)n2C (stereo unspecified),-3.332%,0.8032%,5.865%
Clc1snnc1CN(Cc1cccs1)C1CC1,-6.205%,-10.85%,15.22%
CO[C@@H]1CCN(S(=O)(=O)c2cccs2)[C@H]1Cc1cccnc1,-13.67%,3.553%,-
O=C(c1ccoc1)N1CCO[C@@H]2CNC[C@@H]21,-6.031%,2.475%,-
O=C(O)C(F)(F)F.[H][C@@]12COC[C@H](C(=O)Nc3cnccn3)[C@]1([H])CN(C1CCCC1)C2,-,-,19.22%
CNC(=O)CCc1cc(C)nc(C2CCN(c3ccccc3)CC2)c1,-17.86%,5.024%,5.267%

Some entries from above, unchanged:

With O=C(O)C(F)(F)F.[H][C@@]12CCN(S(=O)(=O)c3cccc(C)c3)C[C@]1([H])[C@@H](CN(C)C)OC2 the screen gave Toxoplasma: -3.706%.
With Cc1nnc(NC(=O)NCc2ccc(OC(C)C)nc2)s1 the screen gave ClpP1P2: 3.307%; CoaBC: -0.2389%; Toxoplasma: 1.64%.
With CCC(CC)CN1CCN(CC(=O)Nc2ccc3nsnc3c2)CC1 the screen gave ClpP1P2: -15.47%; CoaBC: -12.5%; Toxoplasma: 10.34%.
With CC(C)C1CN(S(=O)(=O)c2ccc(C#N)cc2)CCS1 (stereo unspecified) the screen gave ClpP1P2: 1.009%; CoaBC: 5.186%; Toxoplasma: -9.971%.
With CCc1ccc(C2CC(=O)Nc3c2c(=O)n(C)c2ncnn32)cc1 (stereo unspecified) the screen gave ClpP1P2: -22.97%; CoaBC: 2.105%; Toxoplasma: 2.985%.
With Cn1ccnc1NC[C@@H]1CCC[C@@H]2CN(CC3CC3)C[C@@H]21 the screen gave ClpP1P2: -2.661%.
With Clc1snnc1CN(Cc1cccs1)C1CC1 the screen gave ClpP1P2: -6.205%; CoaBC: -10.85%; Toxoplasma: 15.22%.
With Cc1cnc(CN2CCCC2c2noc(C)n2)cn1 (stereo unspecified) the screen gave ClpP1P2: 7.583%; CoaBC: 2.216%; Toxoplasma: 28.78%.

From ChEMBL document CHEMBL3988442, “University of Dundee, Small-Polar-MMV Screening Library” (2021).